This passage reports binding results from PMC4754773.

Amino acid sequences for entries named in this document (tags omitted).
UniProt P17302: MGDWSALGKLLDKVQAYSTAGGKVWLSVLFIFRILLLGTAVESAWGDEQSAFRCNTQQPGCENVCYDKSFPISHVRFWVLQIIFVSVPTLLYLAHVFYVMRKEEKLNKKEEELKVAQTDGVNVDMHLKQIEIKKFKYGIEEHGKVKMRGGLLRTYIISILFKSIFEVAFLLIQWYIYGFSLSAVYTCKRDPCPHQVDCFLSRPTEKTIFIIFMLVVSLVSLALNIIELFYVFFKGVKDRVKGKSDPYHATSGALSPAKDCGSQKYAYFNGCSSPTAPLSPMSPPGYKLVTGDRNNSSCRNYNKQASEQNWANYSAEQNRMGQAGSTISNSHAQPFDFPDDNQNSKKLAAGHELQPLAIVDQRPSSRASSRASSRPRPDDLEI
UniProt O43823: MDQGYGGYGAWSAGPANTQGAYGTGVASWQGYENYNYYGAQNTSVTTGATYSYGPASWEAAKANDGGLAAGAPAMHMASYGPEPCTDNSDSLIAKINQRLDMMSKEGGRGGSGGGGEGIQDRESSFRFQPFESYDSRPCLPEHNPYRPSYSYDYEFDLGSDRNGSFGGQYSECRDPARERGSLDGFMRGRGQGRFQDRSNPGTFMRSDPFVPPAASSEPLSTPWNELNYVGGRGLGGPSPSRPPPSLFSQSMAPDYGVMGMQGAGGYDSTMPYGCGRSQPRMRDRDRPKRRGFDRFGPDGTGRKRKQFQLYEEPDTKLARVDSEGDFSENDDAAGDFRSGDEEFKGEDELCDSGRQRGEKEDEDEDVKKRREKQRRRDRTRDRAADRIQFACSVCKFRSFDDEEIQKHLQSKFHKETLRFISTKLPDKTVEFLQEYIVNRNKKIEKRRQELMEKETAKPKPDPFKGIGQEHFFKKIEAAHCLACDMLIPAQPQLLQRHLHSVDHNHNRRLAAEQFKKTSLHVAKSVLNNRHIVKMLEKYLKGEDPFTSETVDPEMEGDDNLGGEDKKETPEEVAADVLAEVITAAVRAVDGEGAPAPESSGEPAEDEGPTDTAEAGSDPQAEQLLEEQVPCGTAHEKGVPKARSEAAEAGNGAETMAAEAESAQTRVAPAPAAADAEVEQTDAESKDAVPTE

No constants are given. Whether binding was seen depends on the method and setting. Binding seen in cells or lysates may run through a third protein. Here binding means that the protein was enriched with, or labelled near, the bait; the list need not be complete.

The test concerns the target connexin 43 (human (endogenous in A549 and L-O2)) (UniProt P17302). Put plainly: affinity purification with mass spectrometry; Co-IP from A549 cells with an anti-Cx43 antibody; products analysed by LTQ tandem mass spectrometry (ESI-MS).

On to “A-kinase anchoring protein 95 (from UniProt O43823 1-692)”, for which the binding entry is reported as “binds”.
